Our source for the binding values is publication PMC8983766.

Protein sequences, listed by entry. Tags and fused reporters are not part of them.
UniProt O43474: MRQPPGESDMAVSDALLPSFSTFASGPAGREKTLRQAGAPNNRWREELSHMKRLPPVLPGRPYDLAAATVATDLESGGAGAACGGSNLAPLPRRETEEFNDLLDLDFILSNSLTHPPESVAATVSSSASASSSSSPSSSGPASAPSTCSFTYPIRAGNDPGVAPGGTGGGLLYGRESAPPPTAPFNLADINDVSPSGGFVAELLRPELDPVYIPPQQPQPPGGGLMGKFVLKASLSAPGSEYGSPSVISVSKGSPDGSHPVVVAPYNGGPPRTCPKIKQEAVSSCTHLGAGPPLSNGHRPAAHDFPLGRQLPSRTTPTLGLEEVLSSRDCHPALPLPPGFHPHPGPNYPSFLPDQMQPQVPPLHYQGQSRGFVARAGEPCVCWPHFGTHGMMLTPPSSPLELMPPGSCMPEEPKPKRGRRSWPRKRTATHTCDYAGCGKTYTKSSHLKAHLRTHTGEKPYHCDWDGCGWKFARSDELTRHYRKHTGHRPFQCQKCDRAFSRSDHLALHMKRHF

No constants are given. Whether binding was seen depends on the method and setting. Binding seen in cells or lysates may run through a third protein. Some binding calls cover weakened binding; strength is not graded here. For some assays here: Where a sequence is shown, tags or fusion partners need not be part of it.

The target of test [1] is T1, FLAG-tagged deubiquitinating enzyme 3 (DUB3) (UniProt Q6R6M4).
T1 sequence: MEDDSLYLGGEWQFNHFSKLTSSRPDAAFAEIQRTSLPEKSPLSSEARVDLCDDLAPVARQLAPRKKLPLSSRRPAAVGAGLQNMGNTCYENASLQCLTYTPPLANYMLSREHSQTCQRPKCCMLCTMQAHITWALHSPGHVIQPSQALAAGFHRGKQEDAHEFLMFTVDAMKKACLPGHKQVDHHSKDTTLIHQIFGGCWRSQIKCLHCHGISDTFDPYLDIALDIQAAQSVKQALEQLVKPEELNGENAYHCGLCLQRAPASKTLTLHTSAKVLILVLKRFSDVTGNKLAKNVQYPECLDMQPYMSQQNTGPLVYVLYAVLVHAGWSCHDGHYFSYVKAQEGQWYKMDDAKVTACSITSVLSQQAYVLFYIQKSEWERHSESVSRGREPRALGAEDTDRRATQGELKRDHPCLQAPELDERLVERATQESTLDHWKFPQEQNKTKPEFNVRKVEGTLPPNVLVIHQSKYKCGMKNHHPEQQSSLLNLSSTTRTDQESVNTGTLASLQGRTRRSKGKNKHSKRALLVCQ
Kind of test: co-IP; HEK293T cells transfected with FLAG-DUB3; lysates incubated with anti-FLAG-agarose; Western blot for KLF4; RIPA buffer, 4 °C for 4 h. A general note: Immunoblotting shows a protein as a band on a membrane.

Test [2] concerns the target Krüppel-like factor 4 (KLF4), endogenous in Hep3B cells (human (endogenous in Hep3B)) (UniProt O43474). The test can be described thus: co-IP; Hep3B cell lysates immunoprecipitated with control IgG, anti-KLF4 or anti-DUB3; Western blot for DUB3 and KLF4; endogenous proteins; RIPA buffer, protein A/G-agarose, 4 °C for 4 h.

In the case of “Krüppel-like factor 4 (KLF4), endogenous in HEK293T cells (from UniProt O43474 1-513)”, the binding entry in test [1] is listed as “binds”.

B1: deubiquitinating enzyme 3 (DUB3), endogenous in Hep3B cells (enzyme, UniProt Q6R6M4 1-530)
chain: MEDDSLYLGGEWQFNHFSKLTSSRPDAAFAEIQRTSLPEKSPLSSEARVDLCDDLAPVARQLAPRKKLPLSSRRPAAVGAGLQNMGNTCYENASLQCLTYTPPLANYMLSREHSQTCQRPKCCMLCTMQAHITWALHSPGHVIQPSQALAAGFHRGKQEDAHEFLMFTVDAMKKACLPGHKQVDHHSKDTTLIHQIFGGCWRSQIKCLHCHGISDTFDPYLDIALDIQAAQSVKQALEQLVKPEELNGENAYHCGLCLQRAPASKTLTLHTSAKVLILVLKRFSDVTGNKLAKNVQYPECLDMQPYMSQQNTGPLVYVLYAVLVHAGWSCHDGHYFSYVKAQEGQWYKMDDAKVTACSITSVLSQQAYVLFYIQKSEWERHSESVSRGREPRALGAEDTDRRATQGELKRDHPCLQAPELDERLVERATQESTLDHWKFPQEQNKTKPEFNVRKVEGTLPPNVLVIHQSKYKCGMKNHHPEQQSSLLNLSSTTRTDQESVNTGTLASLQGRTRRSKGKNKHSKRALLVCQ
Turning to B1, the binding result in test [2] was “binds”.
